Source: paper PMC10684895

Sequences of proteins named here, by UniProt entry; tags and fusion partners are left off. A change or cut given only in a name is not applied to a line headed by its entry.
UniProt Q14576: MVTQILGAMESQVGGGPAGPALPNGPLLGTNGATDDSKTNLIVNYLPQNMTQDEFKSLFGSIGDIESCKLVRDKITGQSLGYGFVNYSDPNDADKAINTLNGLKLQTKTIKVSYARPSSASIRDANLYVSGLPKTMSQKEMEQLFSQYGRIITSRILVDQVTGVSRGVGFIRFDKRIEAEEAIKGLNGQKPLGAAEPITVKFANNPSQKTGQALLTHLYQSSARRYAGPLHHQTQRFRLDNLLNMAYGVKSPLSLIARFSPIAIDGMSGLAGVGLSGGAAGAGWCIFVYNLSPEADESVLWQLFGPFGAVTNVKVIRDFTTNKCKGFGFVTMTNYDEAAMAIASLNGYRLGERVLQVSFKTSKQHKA

Target: GST-ELAVL3 (UniProt Q14576)
Experiment: EMSA
Details: 5 mM Mg2+, RNA-EMSA: 20 mM Tris-HCl (pH not stated), 100 mM NaCl, 5 mM MgCl2, 2 mM DTT, 37 C 1 h, 6% native gel at 4 C, recombinant protein, protein details: N-terminal GST (pGEX-4T-1), label: 3'-biotin

Sequence | binding result | binding result (pyrvinium pamoate)
CACUUUGCACAUUUUGAUUUUUUUUUUAAA [MYCN-3'UTR-F1] | binds | binds more weakly
UUCAUUUUAAACACUACCUCAGUUAAUAUA [RICTOR-3'UTR-F3] | binds | 

For at least one entry, the source does not settle the construct or the ends of the probe. Weaker means in comparison with the reference protein, sequence or condition of that experiment. At least one verdict was read from the data and is not stated in words by the source.
